Measurements from the supplement of paper PMC12823440, “Inhibitors supercharge kinase turnover through native proteolytic circuits” (Nature, 2025).
Counter-ions that a name gives are not always drawn. This is one part of the list. Hit calls seldom repeat between salt and free forms of one compound.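 In K562 cells expressing nanoluciferase-fused kinases, luminescence was recorded at 4 h intervals between 2 and 18 h, normalized as percent of control with DMSO at 100% and a positive control at 0%. A significant (2 sigma) signal drop marks a time point as decreased. The authors' rule for a hit is not shown and takes in more than the number of time points.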

By UniProt entry, the sequences of proteins in these tests, tags left out. Where a name states a change or a piece, a line headed by the entry shows the natural chain unless it says otherwise.
UniProt P07949, whole entry, looked up: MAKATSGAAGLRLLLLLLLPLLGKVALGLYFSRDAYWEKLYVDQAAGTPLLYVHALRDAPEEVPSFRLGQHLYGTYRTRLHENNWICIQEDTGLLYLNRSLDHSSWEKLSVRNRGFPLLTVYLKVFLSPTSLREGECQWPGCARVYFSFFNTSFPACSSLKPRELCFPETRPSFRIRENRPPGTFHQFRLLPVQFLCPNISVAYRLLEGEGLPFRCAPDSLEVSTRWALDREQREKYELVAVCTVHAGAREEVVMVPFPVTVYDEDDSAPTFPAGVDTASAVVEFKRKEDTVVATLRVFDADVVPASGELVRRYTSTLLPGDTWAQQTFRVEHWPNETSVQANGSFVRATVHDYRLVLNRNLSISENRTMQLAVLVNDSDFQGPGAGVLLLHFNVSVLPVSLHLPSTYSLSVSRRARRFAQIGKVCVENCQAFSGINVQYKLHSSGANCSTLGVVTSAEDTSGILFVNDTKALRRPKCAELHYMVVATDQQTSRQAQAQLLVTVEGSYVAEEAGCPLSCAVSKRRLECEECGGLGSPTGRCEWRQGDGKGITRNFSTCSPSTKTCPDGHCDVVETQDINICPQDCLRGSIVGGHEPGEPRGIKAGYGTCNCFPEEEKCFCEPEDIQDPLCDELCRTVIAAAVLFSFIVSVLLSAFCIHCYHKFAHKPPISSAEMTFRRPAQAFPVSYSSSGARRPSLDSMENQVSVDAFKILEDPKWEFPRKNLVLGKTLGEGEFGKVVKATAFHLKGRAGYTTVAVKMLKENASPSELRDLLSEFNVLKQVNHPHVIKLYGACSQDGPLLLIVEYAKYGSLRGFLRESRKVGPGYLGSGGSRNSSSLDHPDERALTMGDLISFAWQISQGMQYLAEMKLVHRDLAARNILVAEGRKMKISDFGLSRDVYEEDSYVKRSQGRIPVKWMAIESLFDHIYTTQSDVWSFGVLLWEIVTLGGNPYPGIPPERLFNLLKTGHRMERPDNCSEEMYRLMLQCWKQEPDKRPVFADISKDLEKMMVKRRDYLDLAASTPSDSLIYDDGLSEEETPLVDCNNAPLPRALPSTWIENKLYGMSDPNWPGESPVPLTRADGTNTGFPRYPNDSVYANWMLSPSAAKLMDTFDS
UniProt P07949, whole entry M918T, looked up: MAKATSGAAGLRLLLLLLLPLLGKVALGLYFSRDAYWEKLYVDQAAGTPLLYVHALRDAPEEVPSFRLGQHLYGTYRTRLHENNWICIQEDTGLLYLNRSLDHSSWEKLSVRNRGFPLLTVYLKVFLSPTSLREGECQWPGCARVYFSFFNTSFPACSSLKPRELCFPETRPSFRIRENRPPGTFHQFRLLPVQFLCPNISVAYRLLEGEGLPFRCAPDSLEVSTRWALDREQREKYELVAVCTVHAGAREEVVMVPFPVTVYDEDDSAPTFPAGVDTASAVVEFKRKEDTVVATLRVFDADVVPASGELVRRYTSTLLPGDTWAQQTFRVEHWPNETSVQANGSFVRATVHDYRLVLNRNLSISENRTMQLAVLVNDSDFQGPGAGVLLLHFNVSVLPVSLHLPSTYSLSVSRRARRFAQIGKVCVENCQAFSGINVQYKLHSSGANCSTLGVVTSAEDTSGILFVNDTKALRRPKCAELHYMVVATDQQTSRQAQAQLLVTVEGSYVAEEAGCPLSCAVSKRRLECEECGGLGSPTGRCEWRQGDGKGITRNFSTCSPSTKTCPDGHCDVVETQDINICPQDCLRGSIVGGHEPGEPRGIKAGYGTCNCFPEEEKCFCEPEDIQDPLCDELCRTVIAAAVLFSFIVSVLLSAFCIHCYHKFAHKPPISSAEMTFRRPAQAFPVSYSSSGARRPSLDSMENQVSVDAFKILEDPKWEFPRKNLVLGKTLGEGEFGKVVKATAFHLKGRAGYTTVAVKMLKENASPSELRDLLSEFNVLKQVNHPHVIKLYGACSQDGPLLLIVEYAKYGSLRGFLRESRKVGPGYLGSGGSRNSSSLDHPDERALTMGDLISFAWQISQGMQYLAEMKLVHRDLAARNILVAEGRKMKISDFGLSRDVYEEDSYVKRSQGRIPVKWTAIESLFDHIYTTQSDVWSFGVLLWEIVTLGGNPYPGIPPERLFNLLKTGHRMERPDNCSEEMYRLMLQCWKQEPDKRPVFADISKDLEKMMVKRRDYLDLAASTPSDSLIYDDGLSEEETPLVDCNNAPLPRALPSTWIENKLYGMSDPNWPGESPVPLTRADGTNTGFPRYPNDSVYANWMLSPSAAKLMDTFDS
UniProt Q9BRS2: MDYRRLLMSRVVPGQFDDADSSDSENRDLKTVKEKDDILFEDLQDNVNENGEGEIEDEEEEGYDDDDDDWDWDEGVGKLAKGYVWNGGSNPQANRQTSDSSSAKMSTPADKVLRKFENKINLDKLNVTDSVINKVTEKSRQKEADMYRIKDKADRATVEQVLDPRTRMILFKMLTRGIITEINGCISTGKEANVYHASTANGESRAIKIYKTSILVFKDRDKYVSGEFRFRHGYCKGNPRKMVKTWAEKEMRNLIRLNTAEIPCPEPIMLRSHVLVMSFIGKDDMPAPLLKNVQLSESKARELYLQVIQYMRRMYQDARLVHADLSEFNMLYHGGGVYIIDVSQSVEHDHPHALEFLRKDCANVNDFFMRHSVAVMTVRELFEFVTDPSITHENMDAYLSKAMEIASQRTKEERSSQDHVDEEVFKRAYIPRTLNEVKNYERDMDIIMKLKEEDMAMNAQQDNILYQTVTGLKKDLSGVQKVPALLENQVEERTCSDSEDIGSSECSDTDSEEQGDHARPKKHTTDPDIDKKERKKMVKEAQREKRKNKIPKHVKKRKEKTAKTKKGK
UniProt Q13546: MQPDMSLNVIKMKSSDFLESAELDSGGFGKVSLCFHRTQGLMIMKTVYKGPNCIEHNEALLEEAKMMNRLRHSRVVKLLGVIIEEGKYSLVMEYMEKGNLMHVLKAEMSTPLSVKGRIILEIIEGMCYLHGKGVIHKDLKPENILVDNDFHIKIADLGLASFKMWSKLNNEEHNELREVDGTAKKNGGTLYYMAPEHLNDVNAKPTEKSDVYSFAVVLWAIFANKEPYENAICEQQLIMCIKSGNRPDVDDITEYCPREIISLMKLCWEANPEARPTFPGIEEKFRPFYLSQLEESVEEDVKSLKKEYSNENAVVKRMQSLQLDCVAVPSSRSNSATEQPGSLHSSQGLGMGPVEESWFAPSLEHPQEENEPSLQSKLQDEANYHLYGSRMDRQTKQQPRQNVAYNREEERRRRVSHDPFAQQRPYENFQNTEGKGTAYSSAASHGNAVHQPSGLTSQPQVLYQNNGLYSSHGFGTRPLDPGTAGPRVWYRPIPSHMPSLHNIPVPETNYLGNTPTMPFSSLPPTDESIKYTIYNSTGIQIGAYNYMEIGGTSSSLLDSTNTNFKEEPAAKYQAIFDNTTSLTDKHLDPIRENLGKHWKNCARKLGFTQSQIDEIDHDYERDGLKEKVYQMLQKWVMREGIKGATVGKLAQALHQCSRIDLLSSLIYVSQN
UniProt Q01974, whole entry: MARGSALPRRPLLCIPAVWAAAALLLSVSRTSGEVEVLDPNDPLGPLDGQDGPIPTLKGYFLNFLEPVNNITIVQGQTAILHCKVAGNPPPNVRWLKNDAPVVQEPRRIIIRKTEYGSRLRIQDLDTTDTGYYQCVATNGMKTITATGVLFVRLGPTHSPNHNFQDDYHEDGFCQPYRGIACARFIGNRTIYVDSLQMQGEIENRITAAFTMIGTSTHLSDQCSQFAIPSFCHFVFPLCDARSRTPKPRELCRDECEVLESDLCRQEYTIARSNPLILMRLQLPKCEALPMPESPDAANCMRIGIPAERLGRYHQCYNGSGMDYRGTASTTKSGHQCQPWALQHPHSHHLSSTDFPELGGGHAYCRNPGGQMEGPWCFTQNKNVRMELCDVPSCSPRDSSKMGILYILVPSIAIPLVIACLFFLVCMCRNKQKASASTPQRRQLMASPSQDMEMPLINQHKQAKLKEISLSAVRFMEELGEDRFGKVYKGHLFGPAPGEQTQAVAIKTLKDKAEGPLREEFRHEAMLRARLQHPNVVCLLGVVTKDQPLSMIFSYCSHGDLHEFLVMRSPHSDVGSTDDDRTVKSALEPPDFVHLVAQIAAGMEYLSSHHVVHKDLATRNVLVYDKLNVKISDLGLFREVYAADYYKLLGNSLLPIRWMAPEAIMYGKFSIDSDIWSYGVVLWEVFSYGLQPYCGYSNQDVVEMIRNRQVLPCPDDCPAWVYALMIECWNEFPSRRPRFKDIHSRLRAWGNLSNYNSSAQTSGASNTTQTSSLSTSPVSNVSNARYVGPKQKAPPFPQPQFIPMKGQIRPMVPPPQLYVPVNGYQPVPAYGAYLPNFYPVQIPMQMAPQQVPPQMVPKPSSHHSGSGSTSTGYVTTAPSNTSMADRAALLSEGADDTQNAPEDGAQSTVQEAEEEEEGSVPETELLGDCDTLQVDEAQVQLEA
UniProt Q15418, whole entry: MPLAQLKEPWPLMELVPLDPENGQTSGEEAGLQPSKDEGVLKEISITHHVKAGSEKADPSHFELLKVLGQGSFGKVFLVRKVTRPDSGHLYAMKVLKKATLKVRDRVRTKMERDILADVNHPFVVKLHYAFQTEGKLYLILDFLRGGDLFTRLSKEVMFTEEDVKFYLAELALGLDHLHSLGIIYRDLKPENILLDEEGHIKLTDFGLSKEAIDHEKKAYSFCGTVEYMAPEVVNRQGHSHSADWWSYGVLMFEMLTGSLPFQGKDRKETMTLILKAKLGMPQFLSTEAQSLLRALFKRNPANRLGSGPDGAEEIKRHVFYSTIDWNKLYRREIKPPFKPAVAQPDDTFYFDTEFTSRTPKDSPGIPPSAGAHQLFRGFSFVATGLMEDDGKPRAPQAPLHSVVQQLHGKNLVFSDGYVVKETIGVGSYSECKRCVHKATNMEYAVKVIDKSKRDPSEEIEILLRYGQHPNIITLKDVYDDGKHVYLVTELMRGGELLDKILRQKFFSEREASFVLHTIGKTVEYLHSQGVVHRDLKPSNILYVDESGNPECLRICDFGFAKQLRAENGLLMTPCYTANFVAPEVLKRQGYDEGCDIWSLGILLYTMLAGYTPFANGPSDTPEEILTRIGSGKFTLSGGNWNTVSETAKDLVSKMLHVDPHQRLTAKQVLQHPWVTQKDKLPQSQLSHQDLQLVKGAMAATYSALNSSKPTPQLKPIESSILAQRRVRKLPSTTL
UniProt Q9NYA1, whole entry: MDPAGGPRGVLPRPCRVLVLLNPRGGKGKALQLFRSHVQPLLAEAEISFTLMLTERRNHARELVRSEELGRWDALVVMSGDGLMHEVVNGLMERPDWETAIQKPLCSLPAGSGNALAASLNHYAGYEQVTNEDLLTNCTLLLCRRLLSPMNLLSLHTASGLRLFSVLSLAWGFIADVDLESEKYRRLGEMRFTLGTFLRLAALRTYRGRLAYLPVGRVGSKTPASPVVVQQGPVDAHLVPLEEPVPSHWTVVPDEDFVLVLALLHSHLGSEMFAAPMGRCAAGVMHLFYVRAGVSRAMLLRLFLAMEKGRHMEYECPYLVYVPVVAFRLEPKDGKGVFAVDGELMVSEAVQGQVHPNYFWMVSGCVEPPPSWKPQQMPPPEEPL
UniProt Q9Y6E0: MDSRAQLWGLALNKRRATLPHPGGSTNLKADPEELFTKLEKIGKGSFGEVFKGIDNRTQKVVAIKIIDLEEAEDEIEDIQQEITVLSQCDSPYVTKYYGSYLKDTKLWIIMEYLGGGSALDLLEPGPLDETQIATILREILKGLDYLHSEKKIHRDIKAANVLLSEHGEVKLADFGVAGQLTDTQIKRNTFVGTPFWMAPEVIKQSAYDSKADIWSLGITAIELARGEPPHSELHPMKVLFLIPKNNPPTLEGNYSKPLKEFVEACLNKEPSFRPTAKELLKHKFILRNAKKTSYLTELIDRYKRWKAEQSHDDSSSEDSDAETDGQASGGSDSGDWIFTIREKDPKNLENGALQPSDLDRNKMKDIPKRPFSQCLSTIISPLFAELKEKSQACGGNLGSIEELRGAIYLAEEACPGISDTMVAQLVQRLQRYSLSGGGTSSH

Legend:
Assay in all cases: kinase-Nluc reporter destabilization hit call (1 = scored as downregulated) (binary); higher = compound decreases kinase abundance
Details in all cases: K562; 2-18 h
[1] = target: RET (UniProt P07949)
[2] = target: RET_M918T (clone: RET_mut) (UniProt P07949)
[3] = target: RIOK1 (UniProt Q9BRS2)
[4] = target: RIPK1 (UniProt Q13546)
[5] = target: RIPK2 (UniProt O43353)
[6] = target: ROR2 (UniProt Q01974)
[7] = target: RPS6KA1 (UniProt Q15418)
[8] = target: SPHK1 (UniProt Q9NYA1)
[9] = target: SRC (UniProt P12931)
[10] = target: STK24 (UniProt Q9Y6E0)

Measured: kinase-Nluc reporter destabilization hit call

CCc1cncnc1N1CCN(Cc2nc3ccc(C(F)(F)F)cc3[nH]2)CC1 (10 µM)
inactive: [1] 0 | [2] 0 | [3] 0 | [4] 0 | [5] 0 | [6] 0 | [7] 0 | [8] 0 | [9] 0 | [10] 0

Cc1cccc(-c2[nH]c(C(C)(C)C)nc2-c2ccc3nccnc3c2)n1 (10 µM)
inactive: [1] 0 | [2] 0 | [3] 0 | [4] 0 | [5] 0 | [6] 0 | [7] 0 | [8] 0 | [9] 0 | [10] 0

Oc1ccc(/C=C/c2cc(O)cc(O)c2)cc1 [Resveratrol] (10 µM)
inactive: [1] 0 | [2] 0 | [3] 0 | [4] 0 | [5] 0 | [6] 0 | [7] 0 | [8] 0 | [9] 0 | [10] 0

Cc1ncc(NC(=O)NC2c3ccccc3-c3ccccc32)c(-c2ccccc2)n1 (10 µM)
inactive: [1] 0 | [2] 0 | [3] 0 | [4] 0 | [5] 0 | [6] 0 | [7] 0 | [8] 0 | [9] 0 | [10] 0

CC(C)(C[C@H](N)C(=O)O)C(F)F [NV-5138 (hydrochloride)] (10 µM)
inactive: [1] 0 | [2] 0 | [3] 0 | [4] 0 | [5] 0 | [6] 0 | [7] 0 | [8] 0 | [9] 0 | [10] 0

O=[N+]([O-])c1ccc(Nc2nc(N3CCOCC3)nc(N3CCOCC3)n2)cc1 (10 µM)
inactive: [1] 0 | [2] 0 | [3] 0 | [4] 0 | [5] 0 | [6] 0 | [7] 0 | [8] 0 | [9] 0 | [10] 0

CC(=O)c1c(C)c2cnc(Nc3ccc(N4CCN(C(=O)CNc5cccc6c5C(=O)N(C5CCC(=O)NC5=O)C6=O)CC4)cn3)nc2n(C2CCCC2)c1=O (stereo not given) (10 µM)
inactive: [1] 0 | [2] 0 | [3] 0 | [4] 0 | [5] 0 | [6] 0 | [7] 0 | [8] 0 | [9] 0 | [10] 0

COc1ccc(S(=O)(=O)NCc2ccc(C(=O)NCCc3ccc(Cl)cn3)cc2)cc1 (10 µM)
inactive: [1] 0 | [2] 0 | [3] 0 | [4] 0 | [5] 0 | [6] 0 | [7] 0 | [8] 0 | [9] 0 | [10] 0

CN(C)c1nc2c(Br)c(Br)c(Br)c(Br)c2[nH]1 (10 µM)
inactive: [1] 0 | [2] 0 | [3] 0 | [4] 0 | [5] 0 | [6] 0 | [7] 0 | [8] 0 | [9] 0 | [10] 0

O=C(O)c1cc(N(Cc2ccccc2O)Cc2ccccc2O)ccc1O [Lavendustin B] (10 µM)
inactive: [1] 0 | [2] 0 | [3] 0 | [4] 0 | [5] 0 | [6] 0 | [7] 0 | [8] 0 | [9] 0 | [10] 0

C[C@H](Nc1ncnc2nc[nH]c12)c1cc2cccc(Cl)c2c(=O)n1-c1ccccc1 [Duvelisib] (10 µM)
inactive: [1] 0 | [2] 0 | [3] 0 | [4] 0 | [5] 0 | [6] 0 | [7] 0 | [8] 0 | [9] 0 | [10] 0

2 compounds drawn at random from those above:
C[C@H](Nc1ncnc2nc[nH]c12)c1cc2cccc(Cl)c2c(=O)n1-c1ccccc1 [Duvelisib] (10 µM)
inactive: [1] 0 | [2] 0 | [3] 0 | [4] 0 | [5] 0 | [6] 0 | [7] 0 | [8] 0 | [9] 0 | [10] 0

CN(C)c1nc2c(Br)c(Br)c(Br)c(Br)c2[nH]1 (10 µM)
inactive: [1] 0 | [2] 0 | [3] 0 | [4] 0 | [5] 0 | [6] 0 | [7] 0 | [8] 0 | [9] 0 | [10] 0

Later entries.

Cc1ccn2c(C(=O)C(=O)c3ccccc3)c(-c3ccccc3)nc2c1 (10 µM)
inactive: [1] 0 | [2] 0 | [3] 0 | [4] 0 | [5] 0 | [6] 0 | [7] 0 | [8] 0 | [9] 0 | [10] 0

COc1ccc(-c2coc3cc(O)ccc3c2=O)cc1 [Formononetin] (10 µM)
inactive: [1] 0 | [2] 0 | [3] 0 | [4] 0 | [5] 0 | [6] 0 | [7] 0 | [8] 0 | [9] 0 | [10] 0

CC1(C)Cc2c(sc(NC(=S)NC(=O)c3ccccc3)c2C(=O)O)CO1 (10 µM)
inactive: [1] 0 | [2] 0 | [3] 0 | [4] 0 | [5] 0 | [6] 0 | [7] 0 | [8] 0 | [9] 0 | [10] 0

CS(=O)(=O)c1ccc(-c2cnc(N)c(-c3ccc(C(F)(F)F)nc3)c2)cc1 (10 µM)
inactive: [1] 0 | [2] 0 | [3] 0 | [4] 0 | [5] 0 | [6] 0 | [7] 0 | [8] 0 | [9] 0 | [10] 0

C[C@H](Nc1ncnc2[nH]cnc12)c1cc2ccc(F)cc2nc1-c1ccccn1 (10 µM)
inactive: [1] 0 | [2] 0 | [3] 0 | [4] 0 | [5] 0 | [6] 0 | [7] 0 | [8] 0 | [9] 0 | [10] 0

COc1cc(-c2cn[nH]c2)ccc1C(=O)Nc1ccc2c(c1)CCNCC2 (10 µM)
inactive: [1] 0 | [2] 0 | [3] 0 | [4] 0 | [5] 0 | [6] 0 | [7] 0 | [8] 0 | [9] 0 | [10] 0

CN(c1ccc(NC(=O)Nc2ccc(OC(F)(F)F)cc2)cc1)c1ccnc(Nc2cccc(S(N)(=O)=O)c2)n1 (2.5 µM)
inactive: [1] 0 | [2] 0 | [3] 0 | [4] 0 | [5] 0 | [6] 0 | [7] 0 | [8] 0 | [9] 0 | [10] 0

CC(C)C[C@@H](C(=O)Nc1ccn(C[C@@H](O)CO)n1)N1CC(Oc2ccccc2Cl)=CC1=O [Dorzagliatin] (10 µM)
inactive: [1] 0 | [2] 0 | [3] 0 | [4] 0 | [5] 0 | [6] 0 | [7] 0 | [8] 0 | [9] 0 | [10] 0

CCCNC(=O)Nc1ccc(Oc2ncnc3cc(OC)c(OC)cc23)cc1Cl (2.5 µM)
inactive: [1] 0 | [2] 0 | [3] 0 | [4] 0 | [5] 0 | [6] 0 | [7] 0 | [8] 0 | [9] 0 | [10] 0

C=CC(=O)N1CCC[C@H](n2c(=O)n(-c3ccc(Oc4ccccc4)cc3)c3c(N)ncnc32)C1 [ONO-4059 (analog)] (10 µM)
inactive: [1] 0 | [2] 0 | [3] 0 | [4] 0 | [5] 0 | [6] 0 | [7] 0 | [8] 0 | [9] 0 | [10] 0

O=C(Nc1nc(=O)n(Cc2ccc(Cl)cc2)s1)c1ccc(Cl)cc1 (10 µM)
inactive: [1] 0 | [2] 0 | [3] 0 | [4] 0 | [5] 0 | [6] 0 | [7] 0 | [8] 0 | [9] 0 | [10] 0

Cn1cc(-c2c[nH]c3ncnc(N4CCOCC4)c23)cc1C#N (10 µM)
inactive: [1] 0 | [2] 0 | [3] 0 | [4] 0 | [5] 0 | [6] 0 | [7] 0 | [8] 0 | [9] 0 | [10] 0

CC(C)N1CCN(c2ccc(Nc3ncc4cc5n(c4n3)C3(CCCCC3)CNC5=O)nc2)CC1 [Lerociclib (dihydrochloride)] (2 µM)
inactive: [1] 0 | [2] 0 | [3] 0 | [4] 0 | [5] 0 | [6] 0 | [7] 0 | [8] 0 | [9] 0 | [10] 0

Nc1nc(N)c2nc(-c3cccc(O)c3)cnc2n1 (10 µM)
inactive: [1] 0 | [2] 0 | [3] 0 | [4] 0 | [5] 0 | [6] 0 | [7] 0 | [8] 0 | [9] 0 | [10] 0

NC(=O)N1CCC(CC(=O)N2CCC([C@H]3c4ncc(Br)cc4CCc4cc(Cl)cc(Br)c43)CC2)CC1 [Lonafarnib] (2.5 µM)
inactive: [1] 0 | [2] 0 | [3] 0 | [4] 0 | [5] 0 | [6] 0 | [7] 0 | [8] 0 | [9] 0 | [10] 0

CCN(CC)CCC(=O)N1N=C(c2c(-c3ccccc3)c3cc(Br)ccc3[nH]c2=O)CC1c1ccc(Br)cc1 (stereo not given) (2.5 µM)
inactive: [1] 0 | [2] 0 | [3] 0 | [4] 0 | [5] 0 | [6] 0 | [7] 0 | [8] 0 | [9] 0 | [10] 0

CCOC(=O)N1C/C(=C/c2ccccc2F)C(=O)/C(=C\c2ccccc2F)C1 (2.5 µM)
inactive: [1] 0 | [2] 0 | [3] 0 | [4] 0 | [5] 0 | [6] 0 | [7] 0 | [8] 0 | [9] 0 | [10] 0

O=C1NC(=O)C(c2cnc3ccccn23)=C1c1cn2c3c(cc(F)cc13)CNCC2 [GSK-3 inhibitor 1] (2.5 µM)
inactive: [1] 0 | [2] 0 | [3] 0 | [4] 0 | [5] 0 | [6] 0 | [7] 0 | [8] 0 | [9] 0 | [10] 0

Cc1ccc(C(=O)Nc2sc(Nc3ccccc3)nc2C(N)=O)cc1 (10 µM)
inactive: [1] 0 | [2] 0 | [3] 0 | [4] 0 | [5] 0 | [6] 0 | [7] 0 | [8] 0 | [9] 0 | [10] 0

Cn1cc(-c2cnc3cnn(S(=O)(=O)c4cnc5ccc(-c6cnn(C)c6)cn45)c3c2)cn1 [Glumetinib] (10 µM)
inactive: [1] 0 | [2] 0 | [3] 0 | [4] 0 | [5] 0 | [6] 0 | [7] 0 | [8] 0 | [9] 0 | [10] 0

CN(C)CCC=C1c2ccccc2CCc2ccccc21 [Amitriptyline (hydrochloride)] (2.5 µM)
inactive: [1] 0 | [2] 0 | [3] 0 | [4] 0 | [5] 0 | [6] 0 | [7] 0 | [8] 0 | [9] 0 | [10] 0

O=c1cc(N2CCOCC2)nc2c3ccccc3ccn12 [Compound 401] (10 µM)
inactive: [1] 0 | [2] 0 | [3] 0 | [4] 0 | [5] 0 | [6] 0 | [7] 0 | [8] 0 | [9] 0 | [10] 0
